Results are given in words; binding and its absence hold for the method and conditions named.
Biological target: truncated USP5 variant lacking the ZnF-UBP domain (human) (UniProt P45974)
Assay: ITC; SDE2 construct or Ub titrated into USP5 construct; ITC200, 298 K; 50 mM HEPES, 100 mM NaCl, 1 mM TCEP, pH 7.5; duplicate experiments; both purified

Chains of the proteins cited; added tags and fusions are not shown. Lines headed by an entry give the natural chain unless they say otherwise; changes in a name come on top.
UniProt P45974: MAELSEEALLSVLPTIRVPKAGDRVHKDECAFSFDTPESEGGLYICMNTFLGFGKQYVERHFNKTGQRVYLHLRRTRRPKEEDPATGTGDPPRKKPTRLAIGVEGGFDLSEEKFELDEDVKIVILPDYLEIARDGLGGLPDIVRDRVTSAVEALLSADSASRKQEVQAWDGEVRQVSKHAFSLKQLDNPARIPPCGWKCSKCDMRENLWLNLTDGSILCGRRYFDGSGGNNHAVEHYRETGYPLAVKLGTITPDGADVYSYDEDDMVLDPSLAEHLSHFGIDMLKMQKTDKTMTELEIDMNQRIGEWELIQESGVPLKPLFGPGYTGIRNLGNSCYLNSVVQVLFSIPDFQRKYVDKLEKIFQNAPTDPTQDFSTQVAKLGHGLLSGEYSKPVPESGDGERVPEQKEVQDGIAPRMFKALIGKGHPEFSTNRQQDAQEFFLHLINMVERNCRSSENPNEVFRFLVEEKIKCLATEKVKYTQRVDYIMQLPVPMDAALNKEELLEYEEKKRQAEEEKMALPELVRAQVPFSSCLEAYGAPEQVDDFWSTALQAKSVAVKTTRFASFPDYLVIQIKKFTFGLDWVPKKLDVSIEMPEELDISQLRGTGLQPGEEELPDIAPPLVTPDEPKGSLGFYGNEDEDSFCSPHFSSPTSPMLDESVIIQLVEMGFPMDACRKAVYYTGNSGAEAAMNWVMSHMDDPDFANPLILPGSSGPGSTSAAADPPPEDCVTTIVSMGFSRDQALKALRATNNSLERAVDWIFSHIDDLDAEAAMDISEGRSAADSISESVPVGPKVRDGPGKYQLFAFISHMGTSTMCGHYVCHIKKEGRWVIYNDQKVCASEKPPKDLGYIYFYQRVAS

B1: SDE2 ubiquitin-like domain, SDE2UBL(1-77) (domain or fragment, UniProt Q6IQ49-1 1-77)
chain: MAEAAALVWIRGPGFGCKAVRCASGRCTVRDFIHRHCQDQNVPVENFFVKCNGALINTSDTVQHGAVYSLEPRLCGG
  binding: no binding
